Source: patent publication US20090312194A1, “SELECTION OF PERSONALIZED CANCER THERAPY REGIMENS USING INTERFERING RNA FUNCTIONAL SCREENING” (OREGON HEALTH & SCIENCE UNIVERSITY, priority 2008, published 2009)

Columns and labels:
Format in all cases: cell-based
[1] = test system: BA/F3 cells expressing MPL W515L; test: Proliferation assay, factor-independent BA/F3 cells expressing MPL W515L; conditions: Mus musculus, BaF3, 72 h, three days
Method: (§1) 96 AQueous One solution cell proliferation assay (PROMEGA®). […] Total viable cells were determined every day for 1 week using PI exclusion on a Guava cell counter (GUAVA TECHNOLOGIES®). […] Ten days later, colonies were counted manually or using a GELCOUNT® automated colony counter (OXFORD OPTRONIX®, Oxford, UK).
(§2) MPL was then cloned into a Gateway compatible version of MSCV-IRES-GFP (MIG) by performing an LR recombination reaction. […] One milliliter of viral supernatant was mixed with polybrene (5 mg/ml), HEPES (7.5 mM), and 10^6 BA/F3 cells and placed in a centrifuge at 2500 RPM for 90 minutes at 30° C.

[2] = test system: BA/F3 cells expressing MPL 1886InsGG; test: Proliferation assay, factor-independent BA/F3 cells expressing MPL 1886InsGG; conditions: Mus musculus, BaF3, 72 h; factor-independent BA/F3 MPL 1886InsGG, three days
Method: as §1, §2

HEL cells = test: MTS proliferation assay with kinase inhibitors, HEL cells; conditions: Homo sapiens, 72 h; HEL cells (JAK2 V617F), three days
Method: K562 cells were obtained from American Type Culture Collection (Manassas, Va.). CMK and HEL cells were obtained from the German National Resource Centre for Biological Material (DSMZ). […] For proliferation assays, cells were incubated for 72 hours in the presence of JAK Inhibitor I, JAK3 inhibitor III, AG-490, PP2, or Src Kinase Inhibitor I (EMD BIOSCIENCES®, San Diego, Calif.), and the number of viable cells was determined with the […] 96® AQueous One solution cell proliferation assay (PROMEGA®, Madison, Wis.). For HMC1.1 cell stimulation, cells were serum starved overnight in RPMI supplemented with 0.1% bovine serum albumin, L-glutamine, and penicillin/streptomycin. The following day, cells were stimulated for five minutes with 100 ng/ml recombinant stem cell factor (Peprotech, Rocky Hill, N.J.).
as §1

CO[C@@H]1[C@H](N(C)C(=O)c2ccccc2)C[C@H]2O[C@]1(C)n1c3ccccc3c3c4c(c5c6ccccc6n2c5c31)C(=O)NC4 [midostaurin]
IC50 [1]: ~200 nM | IC50 [2]: ~200 nM | IC50 (HEL cells): ~400 nM
